Assay results: the supplement of paper PMC10849652
The other results are listed elsewhere or left out.

Amino acid sequences for entries named in this document (tags omitted). A change or cut given only in a name is not applied to a line headed by its entry.
UniProt Q9BU89: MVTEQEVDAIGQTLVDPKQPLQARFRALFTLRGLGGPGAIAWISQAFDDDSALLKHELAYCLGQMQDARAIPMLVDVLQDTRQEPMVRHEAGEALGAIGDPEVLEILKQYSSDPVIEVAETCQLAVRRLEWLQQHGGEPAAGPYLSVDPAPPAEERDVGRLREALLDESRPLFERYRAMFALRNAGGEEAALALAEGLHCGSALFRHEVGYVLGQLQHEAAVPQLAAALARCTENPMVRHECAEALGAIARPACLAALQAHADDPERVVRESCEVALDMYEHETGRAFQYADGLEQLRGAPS
UniProt O00115: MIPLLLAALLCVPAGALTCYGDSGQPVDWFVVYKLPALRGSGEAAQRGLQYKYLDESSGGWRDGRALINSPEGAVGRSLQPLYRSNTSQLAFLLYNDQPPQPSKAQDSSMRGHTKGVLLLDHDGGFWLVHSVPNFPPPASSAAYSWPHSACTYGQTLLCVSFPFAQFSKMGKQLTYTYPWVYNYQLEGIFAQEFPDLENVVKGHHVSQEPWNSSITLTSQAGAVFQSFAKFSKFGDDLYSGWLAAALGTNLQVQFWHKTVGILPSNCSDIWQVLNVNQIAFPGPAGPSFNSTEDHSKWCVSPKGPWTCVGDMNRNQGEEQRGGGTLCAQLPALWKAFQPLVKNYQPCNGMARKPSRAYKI
UniProt Q8WXX5: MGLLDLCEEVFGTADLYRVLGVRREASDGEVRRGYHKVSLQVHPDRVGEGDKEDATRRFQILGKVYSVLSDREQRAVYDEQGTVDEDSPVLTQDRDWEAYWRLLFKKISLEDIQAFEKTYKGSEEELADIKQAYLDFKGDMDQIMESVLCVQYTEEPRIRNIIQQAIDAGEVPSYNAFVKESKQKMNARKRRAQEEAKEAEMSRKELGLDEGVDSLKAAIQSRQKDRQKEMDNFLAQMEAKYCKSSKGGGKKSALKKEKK
UniProt Q9H3H5: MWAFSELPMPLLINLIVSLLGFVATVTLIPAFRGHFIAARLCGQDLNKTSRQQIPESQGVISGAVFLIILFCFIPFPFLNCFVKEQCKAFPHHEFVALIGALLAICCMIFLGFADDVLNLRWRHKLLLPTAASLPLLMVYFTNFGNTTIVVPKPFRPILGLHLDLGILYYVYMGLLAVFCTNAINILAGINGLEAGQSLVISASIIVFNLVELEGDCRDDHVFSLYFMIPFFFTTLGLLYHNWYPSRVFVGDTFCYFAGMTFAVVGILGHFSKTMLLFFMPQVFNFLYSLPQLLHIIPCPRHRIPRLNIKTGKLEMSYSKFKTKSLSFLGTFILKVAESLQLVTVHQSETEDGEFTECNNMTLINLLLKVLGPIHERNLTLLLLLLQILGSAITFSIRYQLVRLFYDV
UniProt O75521: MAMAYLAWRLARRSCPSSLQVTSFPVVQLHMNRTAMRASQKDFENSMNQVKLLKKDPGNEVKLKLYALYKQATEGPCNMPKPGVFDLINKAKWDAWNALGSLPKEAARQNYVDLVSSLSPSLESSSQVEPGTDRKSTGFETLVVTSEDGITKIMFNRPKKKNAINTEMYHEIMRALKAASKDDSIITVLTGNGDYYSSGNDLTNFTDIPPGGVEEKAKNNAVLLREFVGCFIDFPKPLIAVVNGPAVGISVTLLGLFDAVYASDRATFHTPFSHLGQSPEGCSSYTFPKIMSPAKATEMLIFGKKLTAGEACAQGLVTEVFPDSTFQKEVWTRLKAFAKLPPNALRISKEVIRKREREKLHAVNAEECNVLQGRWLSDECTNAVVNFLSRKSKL
UniProt P63167, whole entry, looked up: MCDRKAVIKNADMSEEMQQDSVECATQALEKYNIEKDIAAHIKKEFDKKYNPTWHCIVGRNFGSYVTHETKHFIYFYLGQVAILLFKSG
UniProt Q92611: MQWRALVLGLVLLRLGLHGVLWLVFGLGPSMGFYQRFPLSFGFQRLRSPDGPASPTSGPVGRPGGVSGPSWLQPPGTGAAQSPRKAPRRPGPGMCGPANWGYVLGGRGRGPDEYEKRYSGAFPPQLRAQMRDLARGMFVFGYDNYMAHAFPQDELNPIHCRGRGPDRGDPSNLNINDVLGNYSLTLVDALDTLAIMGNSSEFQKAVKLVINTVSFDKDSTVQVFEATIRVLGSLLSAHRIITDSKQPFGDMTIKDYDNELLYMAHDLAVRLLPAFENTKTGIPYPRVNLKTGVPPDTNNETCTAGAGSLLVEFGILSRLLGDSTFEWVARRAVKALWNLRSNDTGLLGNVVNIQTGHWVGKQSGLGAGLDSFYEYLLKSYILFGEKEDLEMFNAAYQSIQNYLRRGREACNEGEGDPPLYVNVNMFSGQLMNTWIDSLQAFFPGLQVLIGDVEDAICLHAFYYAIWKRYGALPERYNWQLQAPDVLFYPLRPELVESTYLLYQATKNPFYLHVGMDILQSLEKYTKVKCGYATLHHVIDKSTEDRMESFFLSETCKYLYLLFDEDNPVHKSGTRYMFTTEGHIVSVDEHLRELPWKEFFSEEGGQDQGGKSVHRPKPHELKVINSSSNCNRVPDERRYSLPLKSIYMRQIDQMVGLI
UniProt Q5VYK3, whole entry, looked up: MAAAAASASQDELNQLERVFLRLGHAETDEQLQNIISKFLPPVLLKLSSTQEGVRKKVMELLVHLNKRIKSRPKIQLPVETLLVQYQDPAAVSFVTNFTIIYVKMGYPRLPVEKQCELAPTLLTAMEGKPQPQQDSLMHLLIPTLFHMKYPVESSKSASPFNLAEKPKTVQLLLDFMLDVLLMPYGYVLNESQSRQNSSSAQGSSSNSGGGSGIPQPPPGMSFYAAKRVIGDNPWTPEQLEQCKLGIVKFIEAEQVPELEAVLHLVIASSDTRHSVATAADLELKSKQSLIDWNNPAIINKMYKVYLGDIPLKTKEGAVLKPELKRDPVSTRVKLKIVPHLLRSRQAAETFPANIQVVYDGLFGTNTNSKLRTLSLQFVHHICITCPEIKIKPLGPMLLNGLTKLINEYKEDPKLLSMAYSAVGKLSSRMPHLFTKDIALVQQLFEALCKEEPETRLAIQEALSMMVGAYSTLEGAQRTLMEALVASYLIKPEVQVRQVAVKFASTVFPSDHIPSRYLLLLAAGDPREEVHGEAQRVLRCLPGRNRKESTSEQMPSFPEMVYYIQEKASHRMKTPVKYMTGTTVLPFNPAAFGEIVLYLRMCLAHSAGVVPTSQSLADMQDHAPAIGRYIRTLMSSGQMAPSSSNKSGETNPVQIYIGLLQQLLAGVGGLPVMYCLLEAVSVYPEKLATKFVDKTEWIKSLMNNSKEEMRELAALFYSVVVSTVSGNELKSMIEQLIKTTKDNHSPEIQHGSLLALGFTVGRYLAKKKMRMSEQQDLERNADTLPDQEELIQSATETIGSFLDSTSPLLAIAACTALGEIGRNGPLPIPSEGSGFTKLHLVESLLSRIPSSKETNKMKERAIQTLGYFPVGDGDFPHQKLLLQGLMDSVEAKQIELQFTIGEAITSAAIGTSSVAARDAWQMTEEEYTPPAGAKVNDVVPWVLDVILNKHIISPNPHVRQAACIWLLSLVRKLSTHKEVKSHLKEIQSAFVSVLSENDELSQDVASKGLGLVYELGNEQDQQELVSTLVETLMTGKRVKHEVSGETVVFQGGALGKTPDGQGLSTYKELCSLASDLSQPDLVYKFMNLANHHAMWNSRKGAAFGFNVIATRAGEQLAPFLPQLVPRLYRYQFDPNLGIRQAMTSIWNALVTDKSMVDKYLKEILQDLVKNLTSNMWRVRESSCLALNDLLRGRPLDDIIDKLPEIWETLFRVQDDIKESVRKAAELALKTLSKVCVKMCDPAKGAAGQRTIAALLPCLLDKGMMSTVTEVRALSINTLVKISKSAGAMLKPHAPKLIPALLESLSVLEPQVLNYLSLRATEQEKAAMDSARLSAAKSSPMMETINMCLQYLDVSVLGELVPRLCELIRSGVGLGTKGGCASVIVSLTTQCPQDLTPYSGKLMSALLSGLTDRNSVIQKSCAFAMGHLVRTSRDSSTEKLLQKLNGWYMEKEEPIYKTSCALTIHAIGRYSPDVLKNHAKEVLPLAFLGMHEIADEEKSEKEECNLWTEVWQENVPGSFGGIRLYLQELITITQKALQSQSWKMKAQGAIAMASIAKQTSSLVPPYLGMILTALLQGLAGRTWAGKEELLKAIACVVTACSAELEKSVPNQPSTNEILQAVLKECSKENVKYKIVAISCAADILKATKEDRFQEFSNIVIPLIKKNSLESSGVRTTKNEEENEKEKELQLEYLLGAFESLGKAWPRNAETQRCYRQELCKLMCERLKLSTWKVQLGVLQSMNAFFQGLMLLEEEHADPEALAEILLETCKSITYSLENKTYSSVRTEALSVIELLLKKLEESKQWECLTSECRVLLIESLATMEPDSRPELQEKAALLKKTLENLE
UniProt Q9UBS4: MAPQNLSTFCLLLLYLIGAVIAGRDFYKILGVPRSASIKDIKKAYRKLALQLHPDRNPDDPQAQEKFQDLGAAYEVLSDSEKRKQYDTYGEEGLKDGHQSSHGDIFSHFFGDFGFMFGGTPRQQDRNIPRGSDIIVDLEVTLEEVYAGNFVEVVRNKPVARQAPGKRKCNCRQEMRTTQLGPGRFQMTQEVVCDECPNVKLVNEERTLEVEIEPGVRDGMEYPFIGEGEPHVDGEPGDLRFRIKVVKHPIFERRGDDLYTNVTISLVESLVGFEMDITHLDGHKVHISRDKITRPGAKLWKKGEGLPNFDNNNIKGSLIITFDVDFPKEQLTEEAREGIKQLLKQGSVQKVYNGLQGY
UniProt Q6ZPD9: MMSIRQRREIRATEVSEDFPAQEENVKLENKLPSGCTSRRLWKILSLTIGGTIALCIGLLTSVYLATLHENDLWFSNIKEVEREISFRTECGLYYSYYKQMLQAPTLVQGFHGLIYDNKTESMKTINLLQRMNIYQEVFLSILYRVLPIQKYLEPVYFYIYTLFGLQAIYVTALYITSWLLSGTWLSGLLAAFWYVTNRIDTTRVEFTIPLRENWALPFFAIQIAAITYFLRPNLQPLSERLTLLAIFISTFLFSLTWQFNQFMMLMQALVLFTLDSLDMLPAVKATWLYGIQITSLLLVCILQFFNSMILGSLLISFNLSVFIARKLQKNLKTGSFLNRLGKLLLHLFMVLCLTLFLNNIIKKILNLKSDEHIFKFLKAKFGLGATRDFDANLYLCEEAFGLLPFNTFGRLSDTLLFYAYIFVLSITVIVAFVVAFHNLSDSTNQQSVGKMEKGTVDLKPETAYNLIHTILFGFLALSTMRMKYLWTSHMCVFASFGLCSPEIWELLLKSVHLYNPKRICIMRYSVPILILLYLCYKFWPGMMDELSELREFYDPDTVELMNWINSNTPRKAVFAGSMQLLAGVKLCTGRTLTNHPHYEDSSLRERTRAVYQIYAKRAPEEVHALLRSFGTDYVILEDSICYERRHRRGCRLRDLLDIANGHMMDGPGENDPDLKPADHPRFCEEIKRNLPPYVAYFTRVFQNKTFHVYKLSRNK
UniProt Q6V1X1: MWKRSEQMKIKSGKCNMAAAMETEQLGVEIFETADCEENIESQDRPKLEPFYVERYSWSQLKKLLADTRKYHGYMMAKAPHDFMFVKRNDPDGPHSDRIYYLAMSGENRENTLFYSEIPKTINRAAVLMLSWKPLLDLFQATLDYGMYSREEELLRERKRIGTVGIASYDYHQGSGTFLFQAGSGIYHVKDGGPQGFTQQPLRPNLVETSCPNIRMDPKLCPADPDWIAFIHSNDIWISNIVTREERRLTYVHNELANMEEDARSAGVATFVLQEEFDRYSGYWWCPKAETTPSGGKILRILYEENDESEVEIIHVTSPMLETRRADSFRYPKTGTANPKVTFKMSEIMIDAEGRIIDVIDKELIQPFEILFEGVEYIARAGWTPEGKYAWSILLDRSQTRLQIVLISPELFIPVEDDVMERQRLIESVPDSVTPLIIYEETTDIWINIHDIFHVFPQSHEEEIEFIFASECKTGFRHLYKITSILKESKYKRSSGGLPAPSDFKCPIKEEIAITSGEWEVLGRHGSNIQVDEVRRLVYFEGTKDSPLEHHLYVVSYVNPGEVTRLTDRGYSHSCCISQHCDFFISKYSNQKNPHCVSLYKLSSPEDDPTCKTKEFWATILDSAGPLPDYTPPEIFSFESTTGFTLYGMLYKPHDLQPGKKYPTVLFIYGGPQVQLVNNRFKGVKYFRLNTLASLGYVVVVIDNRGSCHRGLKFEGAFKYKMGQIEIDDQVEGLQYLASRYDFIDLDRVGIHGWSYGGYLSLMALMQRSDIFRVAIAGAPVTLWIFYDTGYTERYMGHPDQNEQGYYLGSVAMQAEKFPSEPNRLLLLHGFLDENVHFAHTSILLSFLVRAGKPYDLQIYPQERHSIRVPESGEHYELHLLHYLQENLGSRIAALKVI

Legend:
Test in all cases: log2 fold change, soluble protein after heating vs DMSO (PISA); higher = thermal stabilisation; K562 cells, 10 uM, 30 min; active = over 0.2 and 3.5 SD of the protein, either way, in both replicates (recomputed)
bafetinib = compound: Cc1ccc(NC(=O)c2ccc(CN3CC[C@H](N(C)C)C3)c(C(F)(F)F)c2)cc1Nc1nccc(-c2cncnc2)n1 [bafetinib]
Summary of the method: (§1)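 K562 cells at 2×10^6 cells/mL were treated for 30 min with 10 μM compound, and aliquots were heated for 3 min over 48°C-58°C before pooling. Extraction used PBS with 0.5% NP-40 at 4°C, and soluble protein was the supernatant after 21,000xg for 90 min, measured by TMTpro 16plex LC-MS/MS with channel sums equalised. Thermal stability values, relative to control samples and from duplicates, are log2 fold changes.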

[1] = compound: Cc1cccc(CC(=O)N2CCc3c2ccc(-c2cn(C)c4ncnc(N)c24)c3F)n1
Summary of the method: as §1

nilotinib = compound: Cc1cn(-c2cc(NC(=O)c3ccc(C)c(Nc4nccc(-c5cccnc5)n4)c3)cc(C(F)(F)F)c2)cn1 [nilotinib]
Summary of the method: as §1

[2] = compound: Cc1nc(Nc2n[nH]c3c2CN(C(=O)N[C@H](CN(C)C)c2ccccc2)C3(C)C)c2sccc2n1
Summary of the method: as §1

dasatinib = compound: Cc1nc(Nc2ncc(C(=O)Nc3c(C)cccc3Cl)s2)cc(N2CCN(CCO)CC2)n1 [dasatinib]
Summary of the method: as §1

[3] = compound: Cc1ncc(-c2ccnc(Nc3ccc(S(C)(=O)=O)cc3)n2)n1C(C)C
Summary of the method: as §1

[4] = compound: Cn1cc(-c2ccc3c(c2)CCN3C(=O)Cc2cccc(C(F)(F)F)c2)c2c(N)ncnc21
Summary of the method: as §1

[5] = compound: Cn1cc(-c2ccc3nnc(C(F)(F)c4ccc5ncccc5c4)n3n2)cn1
Summary of the method: as §1

tipifarnib = compound: Cn1cncc1[C@@](N)(c1ccc(Cl)cc1)c1ccc2c(c1)c(-c1cccc(Cl)c1)cc(=O)n2C [tipifarnib]
Summary of the method: as §1

mubritinib = compound: FC(F)(F)c1ccc(/C=C/c2nc(COc3ccc(CCCCn4ccnn4)cc3)co2)cc1 [mubritinib]
Summary of the method: as §1

[6] = compound: NC(=O)Nc1cc(-c2cccc(F)c2)sc1C(=O)N[C@H]1CCCNC1
Summary of the method: as §1

[7] = compound: NC(=O)c1cnc(N[C@@H]2CCCC[C@@H]2N)nc1Nc1cccc(-n2nccn2)c1
Summary of the method: as §1

[8] = compound: NC1(c2ccc(-c3nc4ccn5c(=O)[nH]nc5c4cc3-c3ccccc3)cc2)CCC1
Summary of the method: as §1

[9] = compound: NCC(=O)Nc1ccc(-n2nc(C(F)(F)F)cc2-c2ccc3c(ccc4ccccc43)c2)cc1
Summary of the method: as §1

entinostat = compound: Nc1ccccc1NC(=O)c1ccc(CNC(=O)OCc2cccnc2)cc1 [entinostat]
Summary of the method: as §1

vorinostat = compound: O=C(CCCCCCC(=O)Nc1ccccc1)NO [vorinostat]
Summary of the method: as §1

citarinostat = compound: O=C(CCCCCCNC(=O)c1cnc(N(c2ccccc2)c2ccccc2Cl)nc1)NO [citarinostat]
Summary of the method: as §1

silmitasertib = compound: O=C(O)c1ccc2c(c1)nc(Nc1cccc(Cl)c1)c1ccncc12 [silmitasertib]
Summary of the method: as §1

[10] = compound: O=C1NC(=O)C(c2cnc3ccccn23)=C1c1cn2c3c(cc(F)cc13)CN(C(=O)N1CCCCC1)CC2
Summary of the method: as §1

[11] = compound: c1cc(OCCN2CCCCC2)cc(-c2n[nH]c3ccc(-c4nnc[nH]4)cc23)c1
Summary of the method: as §1

Measured: log2 fold change

DST (UniProt Q03001)
inactive: bafetinib -0.3 | [1] 0.014 | nilotinib -0.241 | [2] -0.072 | dasatinib 0.048 | [3] -0.067 | [4] 0.028 | [5] 0.005 | tipifarnib -0.045 | mubritinib 0.058 | [6] -0.194 | [7] -0.186 | [8] -0.36 | [9] -0.095 | entinostat -0.098 | vorinostat 0.07 | citarinostat -0.036 | silmitasertib 0.156 | [10] -0.201 | [11] -0.084

DOHH (UniProt Q9BU89)
inactive: [1] 0.008 | nilotinib 0.035 | [2] -0.169 | dasatinib 0.013 | [3] -0.054 | [4] -0.089 | [5] 0.022 | tipifarnib 0.014 | mubritinib 0.03 | [6] 0.043 | [7] 0.056 | [8] 0.278 | [9] 0.009 | entinostat -0.106 | vorinostat -0.04 | citarinostat 0.017 | silmitasertib 0.047 | [10] 0.153 | [11] 0.283
active: bafetinib 0.653

DNASE2 (UniProt O00115)
inactive: bafetinib -0.126 | [1] -0.022 | nilotinib 0.052 | [2] -0.008 | dasatinib -0.053 | [3] -0.047 | [4] 0.052 | [5] 0.061 | tipifarnib 0.032 | mubritinib 0.041 | [6] -0.054 | [7] -0.043 | [8] -0.05 | [9] 0.012 | entinostat -0.023 | vorinostat -0.03 | citarinostat 0.002 | silmitasertib -0.013 | [10] 0.12 | [11] -0.019

DNAJC9 (UniProt Q8WXX5)
inactive: bafetinib -0.087 | [1] -0.035 | nilotinib -0.007 | [2] -0.047 | dasatinib 0.037 | [3] -0.011 | [4] 0.032 | [5] 0.002 | tipifarnib 0.001 | mubritinib 0.032 | [6] -0.017 | [7] -0.105 | [8] -0.05 | [9] -0.076 | entinostat 0.027 | vorinostat -0.01 | citarinostat 0.055 | silmitasertib -0.009 | [10] -0.066 | [11] -0.022

DYRK1A isoform 2 (UniProt Q13627)
active: [6] -0.225 | silmitasertib -0.292
inactive: bafetinib -0.073 | [1] 0.02 | nilotinib -0.005 | [2] -0.056 | dasatinib -0.098 | [3] -0.047 | [4] 0.021 | [5] -0.046 | tipifarnib -0.042 | mubritinib 0.034 | [7] -0.034 | [8] -0.115 | [9] -0.064 | entinostat 0.028 | vorinostat 0.056 | citarinostat 0 | [10] -0.029

DNPEP (UniProt Q9ULA0)
inactive: bafetinib 0.003 | [1] 0.017 | nilotinib 0 | [2] 0.02 | dasatinib 0.016 | [3] 0.001 | [4] 0.019 | [5] 0.027 | tipifarnib -0.026 | mubritinib 0.025 | [6] 0.082 | [7] 0.069 | [8] 0.018 | [9] 0.05 | entinostat -0.007 | vorinostat 0.012 | citarinostat 0.029 | silmitasertib -0.036 | [10] 0.021 | [11] 0.013

DPAGT1 (UniProt Q9H3H5)
inactive: bafetinib -0.004 | [1] -0.046 | nilotinib 0.007 | [2] 0.075 | dasatinib -0.05 | [3] -0.069 | [4] 0.044 | [5] 0.038 | tipifarnib 0.056 | mubritinib 0.043 | [6] 0.076 | [7] -0.01 | [8] -0.033 | [9] 0.195 | entinostat 0.132 | vorinostat -0.301 | citarinostat -0.027 | silmitasertib -0.015 | [10] 0.059 | [11] 0.021

ECI2 (UniProt O75521)
inactive: bafetinib -0.047 | [1] 0 | nilotinib 0.024 | [2] -0.056 | dasatinib -0.031 | [3] 0.04 | [4] 0.044 | [5] 0.023 | tipifarnib 0.012 | mubritinib 0.006 | [6] -0.004 | [7] -0.009 | [8] 0.002 | [9] -0.045 | entinostat -0.004 | vorinostat 0.014 | citarinostat 0.015 | silmitasertib -0.039 | [10] -0.02 | [11] -0.041

DYNLL1 (UniProt P63167)
inactive: bafetinib -0.035 | [1] 0.032 | nilotinib 0.088 | [2] -0.097 | dasatinib 0.01 | [3] 0.025 | [4] 0.135 | [5] 0.13 | tipifarnib -0.026 | mubritinib -0.051 | [6] 0.015 | [7] 0.017 | [8] 0.035 | [9] 0.031 | entinostat 0.099 | vorinostat -0.046 | citarinostat 0.032 | silmitasertib 0.022 | [10] -0.053 | [11] -0.124

EDEM1 (UniProt Q92611)
inactive: bafetinib -0.042 | [1] 0.076 | nilotinib -0.014 | [2] -0.054 | dasatinib -0.02 | [3] -0.005 | [4] -0.069 | [5] 0.023 | tipifarnib 0.06 | mubritinib -0.012 | [6] 0.066 | [7] 0.019 | [8] -0.063 | [9] 0.083 | entinostat -0.005 | vorinostat 0.101 | citarinostat 0.079 | silmitasertib 0.059 | [10] 0.051 | [11] -0.086

ECPAS (UniProt Q5VYK3)
active: dasatinib -0.255
inactive: bafetinib 0.031 | [1] 0.105 | nilotinib -0.067 | [2] -0.038 | [3] 0.077 | [4] -0.011 | [5] -0.043 | tipifarnib -0.202 | mubritinib 0.021 | [6] -0.009 | [7] -0.024 | [8] -0.169 | [9] -0.035 | entinostat 0.073 | vorinostat 0.077 | citarinostat 0.08 | silmitasertib 0.071 | [10] -0.038 | [11] -0.032

DNAJB11 (UniProt Q9UBS4)
inactive: bafetinib -0.063 | [1] -0.088 | nilotinib 0.005 | [2] 0.018 | dasatinib 0.01 | [3] -0.015 | [4] -0.067 | [5] 0.018 | tipifarnib 0.037 | mubritinib 0.003 | [6] -0.018 | [7] 0.009 | [8] -0.007 | [9] -0.021 | entinostat -0.021 | vorinostat -0.048 | citarinostat 0.008 | silmitasertib -0.01 | [10] 0.015 | [11] 0.015

DYNC1LI1 (UniProt Q9Y6G9)
inactive: bafetinib 0.033 | [1] 0.058 | nilotinib 0.016 | [2] 0.011 | dasatinib -0.056 | [3] 0.007 | [4] 0.009 | [5] -0.016 | tipifarnib -0.034 | mubritinib 0.07 | [6] -0.056 | [7] -0.078 | [8] -0.11 | [9] -0.037 | entinostat 0.017 | vorinostat 0.013 | citarinostat 0.036 | silmitasertib -0.046 | [10] -0.028 | [11] -0.031

DPY19L3 (UniProt Q6ZPD9)
inactive: bafetinib -0.07 | [1] 0.019 | nilotinib -0.043 | [2] -0.068 | dasatinib 0.109 | [3] -0.18 | [4] -0.066 | [5] 0.072 | tipifarnib 0.082 | mubritinib -0.047 | [6] -0.025 | [7] -0.019 | [8] 0.043 | [9] 0.032 | entinostat -0.058 | vorinostat 0 | citarinostat -0.026 | silmitasertib 0.057 | [10] 0.026 | [11] -0.067

Pulled one by one from above (2):
ECPAS (UniProt Q5VYK3)
active: dasatinib -0.255
inactive: bafetinib 0.031 | [1] 0.105 | nilotinib -0.067 | [2] -0.038 | [3] 0.077 | [4] -0.011 | [5] -0.043 | tipifarnib -0.202 | mubritinib 0.021 | [6] -0.009 | [7] -0.024 | [8] -0.169 | [9] -0.035 | entinostat 0.073 | vorinostat 0.077 | citarinostat 0.08 | silmitasertib 0.071 | [10] -0.038 | [11] -0.032

DPY19L3 (UniProt Q6ZPD9)
inactive: bafetinib -0.07 | [1] 0.019 | nilotinib -0.043 | [2] -0.068 | dasatinib 0.109 | [3] -0.18 | [4] -0.066 | [5] 0.072 | tipifarnib 0.082 | mubritinib -0.047 | [6] -0.025 | [7] -0.019 | [8] 0.043 | [9] 0.032 | entinostat -0.058 | vorinostat 0 | citarinostat -0.026 | silmitasertib 0.057 | [10] 0.026 | [11] -0.067

The results go on.

DPP8 (UniProt Q6V1X1)
active: citarinostat -0.325
inactive: bafetinib -0.054 | [1] -0.035 | nilotinib 0.027 | [2] -0.019 | dasatinib 0.014 | [3] -0.001 | [4] 0.048 | [5] 0.054 | tipifarnib 0.065 | mubritinib 0.036 | [6] -0.243 | [7] -0.126 | [8] -0.04 | [9] -0.079 | entinostat -0.124 | vorinostat -0.021 | silmitasertib 0.063 | [10] -0.114 | [11] 0.219

DRG2 (UniProt P55039)
inactive: bafetinib -0.044 | [1] -0.008 | nilotinib 0 | [2] -0.005 | dasatinib -0.027 | [3] 0.017 | [4] 0.056 | [5] 0.02 | tipifarnib -0.024 | mubritinib 0.028 | [6] -0.019 | [7] -0.07 | [8] -0.089 | [9] -0.004 | entinostat -0.019 | vorinostat -0.014 | citarinostat 0.048 | silmitasertib 0.014 | [10] -0.043 | [11] -0.027
